Measured values from patent publication US10787423B2, “Piperazine and piperidine derivatives, their synthesis and use thereof in inhibiting VDAC oligomerization, apoptosis and mitochondria dysfunction” (THE NATIONAL INSTITUTE FOR BIOTECHNOLOGY IN THE NEGEV LTD., priority 2015, dated 2020).
Some results were stated once for a whole list of compounds, not compound by compound.

Test: Brain penetration after oral gavage, HPLC/MS of brain extracts
Format: in vivo, C57BL/6 mice
Details: after 24 hours
Method: C57BL/6 mice ([…]) were used. The animals received treatments with either free compounds of Formulae 1 and 10, or encapsulated compounds, prepared according to the Examples 16 and 17. Doses as indicated in the Table 4 below were administered in phosphate-buffered saline (PBS) through an oral gavage. After 12 hours and 24 hours, randomly selected mice from each group were sacrificed, their brains collected and stored in −80° C. The concentrations of the compounds in the tissues were determined by HPLC/MS analysis.
Tissue samples were homogenized in phosphate-buffered saline solution, then diluted with acetonitrile to 50% v/v, centrifuged at 10,000 g for 10 minutes, and supernatants were analyzed. The compounds concentrations in the brain extracts were determined from calibration curves. The results were the averaged from 2 mice for each treatment group/time point.

O=C(CC(CO)N1CCN(c2ccc(OC(F)(F)F)cc2)CC1)Nc1ccc(Cl)cc1 (racemic) [Formula 1, N-(4-chlorophenyl)-4-hydroxy-3-(4-(4-(trifluoromethoxy)phenyl)-piperazin-1-yl)butanamide]
level in the brain when encapsulated in PLGA relative to solution: over 2 fold
